Here are results for five molecules from patent US20250177527A1.

By UniProt entry, the sequences of proteins in these tests, tags left out. Where a name states a change or a piece, a line headed by the entry shows the natural chain unless it says otherwise.
UniProt P56856: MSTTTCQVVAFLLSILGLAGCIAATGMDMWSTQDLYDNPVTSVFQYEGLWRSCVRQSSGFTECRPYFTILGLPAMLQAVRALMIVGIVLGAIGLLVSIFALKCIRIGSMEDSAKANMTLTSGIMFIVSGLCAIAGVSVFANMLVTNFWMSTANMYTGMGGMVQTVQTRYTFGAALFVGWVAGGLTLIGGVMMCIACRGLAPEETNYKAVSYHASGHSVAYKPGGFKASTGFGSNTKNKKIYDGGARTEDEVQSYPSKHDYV

Substitutions are numbered along the chain they refer to. These are yes or no findings as the source states them, for the method shown. Binding can be weak; no strength is given.

Assay [1] has as its target human CLDN18.2 (human) (UniProt P56856). Briefly: flow cytometry on SP2/0-hCLDN18.2 cells (FIG. 1). In general terms: Flow cytometry measures light scatter and fluorescence of single cells or particles in a stream.
The target is the same in assay [2]. Briefly: flow cytometry on MC38-human CLDN18.2 cells (FIG. 20).
Assay [3] has the same target. In words: flow cytometry on 293T-, CHO- and SP2/0-human CLDN18.2 cells (FIG. 18).
Assay [4] has the same target. In words: flow cytometry on cells (summary of Examples 1-2).

B1: Standard antibody (scFv)
scFv: DIVMTQSPDSLAVSLGERATINCKSSQSLFNSGNQKNYLTWYQQKPGQPPKLLIYWASTRESGVPDRFSGSGSGTDFTLTISSLQAEDVAVYYCQNAYSFPYTFGGGTKLEIKRGGGGSGGGGSGGGGSQVQLQESGPGLIKPSQTLSLTCTVSGGSISSGYNWHWIRQPPGKGLEWIGYIHYTGSTNYNPALRSRVTISVDTSKNQFSLKLSSVTAADTAIYYCARIYNGNSFPYWGQGTTVTVSS
B1: the binding entry with human CLDN18.2 (human) [1] is “binds”.

B2: 5E6 CLDN18.2 antigen-binding protein (antibody, V domains shown)
VH: QVQLVQSGAEVKKPGASVKVSCKASGYTFTNYVMNWVRQAPGQRLEWMGYINPYNDGTKYNERFKGRVTITRDTSASTAYMELSSLRSEDTAVYYCARLYRGNAMDYWGQGTLVTVSS
VL: DIVMTQSPDSLAVSLGERATINCKSSQSLLASGNQKNYLTWYQQKPGQPPKLLIYWASTRESGVPDRFSGSGSGTDFTLTISSLQAEDVAVYYCQNVYIYPFTFGQGTKLEIKR
As to B2, the binding result with human CLDN18.2 (human) [2] and with human CLDN18.2 (human) [3] was “binds” in each case.

B3: 7E3 CLDN18.2 antigen-binding protein (antibody, V domains shown)
VH: EVQLQQSGPELVKPGASVKMSCKASGYTFTNYIIHWVKQKPGQGLEWIGYINPYTDGPKYNEKFKGRATLTSDKSSSTAYMEFSSLTSEDSAVYYCARLNRGNAMDYWGQGTSVTVSS
VL: DIVMTQSPSSLTVTVREKVTLSCKSSQSLLNSGNQKNYLTWYQQKPGQPPKLLIYWASTRESGVPDRFTGSGSGTDFTLTISSVQAEDLAVYYCQNVYIYPFTFGAGTKLELKR
Regarding B3, the binding result in the assay with human CLDN18.2 (human) [2] and with human CLDN18.2 (human) [3] was “binds” each time.

B4: 14E12 CLDN18.2 antigen-binding protein (antibody, V domains shown)
VH: B3 VH with Q6E
VL: DIVMTQSPSSLSVSAGEKVTMSCKSSQSLLNNGNQKNYLAWYQQKPGQPPKLLIYGASTRESGVPDRFTGSGSGTDFALTISSVQAEDLAVYYCQNDLYYPFTFGSGTKLDIKR
B4: the binding result with human CLDN18.2 (human) [2] and with human CLDN18.2 (human) [3] was “binds” in each case.

B5: 5E6-scFv single-chain antibody (scFv)
scFv: QVQLVQSGAEVKKPGASVKVSCKASGYTFTNYVMNWVRQAPGQRLEWMGYINPYNDGTKYNERFKGRVTITRDTSASTAYMELSSLRSEDTAVYYCARLYRGNAMDYWGQGTLVTVSSASTGGGGSGGGGSGGGGSDIVMTQSPDSLAVSLGERATINCKSSQSLLASGNQKNYLTWYQQKPGQPPKLLIYWASTRESGVPDRFSGSGSGTDFTLTISSLQAEDVAVYYCQNVYIYPFTFGQGTKLEIKR
Regarding B5, the binding entry in the assay with human CLDN18.2 (human) [1] and with human CLDN18.2 (human) [4] was “binds” in each case.
